Data taken from patent US5534418.
For at least one entry, the source does not settle the construct or the ends of the probe. Where cells or extracts were used, other partners may take part.

Test system: T3 receptor (thyroid hormone receptor, GC2 pituitary cell nuclear extract) (Rattus norvegicus)
Test: footprint
Details: DNase I protection of antisense strand -179 to -164 in GH enhancer by crude GC2 nuclear extract; buffer A, 22 C; protein in an extract; protein details: 125I-T3 labeled; label: 32P

CAGGGACGTGACCGCA (double strand) [rat GH T3 response element footprint (-179 to -164)]
binding result: binds
